Here are results for eleven targets from the supplement of paper PMC12819154, “High-throughput peptide-centric local stability assay extends protein–ligand identification to membrane proteins, tissues and bacteria” (Nature Structural & Molecular Biology, 2025).

Amino acid sequences for entries named in this document (tags omitted). A change or cut given only in a name is not applied to a line headed by its entry.
UniProt Q9Y696: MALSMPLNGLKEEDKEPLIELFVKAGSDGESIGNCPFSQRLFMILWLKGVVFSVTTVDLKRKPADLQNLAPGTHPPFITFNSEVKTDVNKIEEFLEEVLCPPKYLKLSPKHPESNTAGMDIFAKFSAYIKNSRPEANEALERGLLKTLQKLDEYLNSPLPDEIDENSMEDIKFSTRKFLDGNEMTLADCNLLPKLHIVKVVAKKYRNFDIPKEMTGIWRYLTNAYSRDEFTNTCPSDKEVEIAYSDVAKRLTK
UniProt Q9Y3C8: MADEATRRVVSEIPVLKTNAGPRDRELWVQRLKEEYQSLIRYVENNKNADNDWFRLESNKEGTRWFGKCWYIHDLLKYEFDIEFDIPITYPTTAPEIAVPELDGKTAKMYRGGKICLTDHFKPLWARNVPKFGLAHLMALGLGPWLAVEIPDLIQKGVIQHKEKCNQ
UniProt Q9Y5L2: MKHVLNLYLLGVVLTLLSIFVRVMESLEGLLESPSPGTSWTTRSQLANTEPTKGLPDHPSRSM
UniProt Q9Y5B6: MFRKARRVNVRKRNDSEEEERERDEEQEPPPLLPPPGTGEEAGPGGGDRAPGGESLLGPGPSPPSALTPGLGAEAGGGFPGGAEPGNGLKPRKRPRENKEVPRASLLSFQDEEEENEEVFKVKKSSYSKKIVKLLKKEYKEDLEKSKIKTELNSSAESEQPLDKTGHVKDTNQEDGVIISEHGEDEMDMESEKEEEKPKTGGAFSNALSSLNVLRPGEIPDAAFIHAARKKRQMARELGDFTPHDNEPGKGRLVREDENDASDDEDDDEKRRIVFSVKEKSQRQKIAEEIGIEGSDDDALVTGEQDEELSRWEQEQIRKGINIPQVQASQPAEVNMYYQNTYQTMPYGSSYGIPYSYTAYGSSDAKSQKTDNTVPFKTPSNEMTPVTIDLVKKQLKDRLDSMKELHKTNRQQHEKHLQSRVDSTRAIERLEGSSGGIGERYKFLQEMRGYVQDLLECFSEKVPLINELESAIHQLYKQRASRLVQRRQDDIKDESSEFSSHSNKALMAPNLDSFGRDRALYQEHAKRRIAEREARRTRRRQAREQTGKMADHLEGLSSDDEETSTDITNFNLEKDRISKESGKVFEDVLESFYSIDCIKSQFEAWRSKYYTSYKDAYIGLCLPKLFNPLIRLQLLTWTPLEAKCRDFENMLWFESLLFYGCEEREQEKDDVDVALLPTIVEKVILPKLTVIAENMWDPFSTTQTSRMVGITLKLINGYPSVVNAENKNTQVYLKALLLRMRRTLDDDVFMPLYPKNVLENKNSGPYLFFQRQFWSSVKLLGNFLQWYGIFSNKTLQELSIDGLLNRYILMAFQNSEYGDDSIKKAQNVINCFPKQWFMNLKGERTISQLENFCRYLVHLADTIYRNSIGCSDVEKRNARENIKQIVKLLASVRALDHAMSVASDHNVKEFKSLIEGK
UniProt Q9Y4C4: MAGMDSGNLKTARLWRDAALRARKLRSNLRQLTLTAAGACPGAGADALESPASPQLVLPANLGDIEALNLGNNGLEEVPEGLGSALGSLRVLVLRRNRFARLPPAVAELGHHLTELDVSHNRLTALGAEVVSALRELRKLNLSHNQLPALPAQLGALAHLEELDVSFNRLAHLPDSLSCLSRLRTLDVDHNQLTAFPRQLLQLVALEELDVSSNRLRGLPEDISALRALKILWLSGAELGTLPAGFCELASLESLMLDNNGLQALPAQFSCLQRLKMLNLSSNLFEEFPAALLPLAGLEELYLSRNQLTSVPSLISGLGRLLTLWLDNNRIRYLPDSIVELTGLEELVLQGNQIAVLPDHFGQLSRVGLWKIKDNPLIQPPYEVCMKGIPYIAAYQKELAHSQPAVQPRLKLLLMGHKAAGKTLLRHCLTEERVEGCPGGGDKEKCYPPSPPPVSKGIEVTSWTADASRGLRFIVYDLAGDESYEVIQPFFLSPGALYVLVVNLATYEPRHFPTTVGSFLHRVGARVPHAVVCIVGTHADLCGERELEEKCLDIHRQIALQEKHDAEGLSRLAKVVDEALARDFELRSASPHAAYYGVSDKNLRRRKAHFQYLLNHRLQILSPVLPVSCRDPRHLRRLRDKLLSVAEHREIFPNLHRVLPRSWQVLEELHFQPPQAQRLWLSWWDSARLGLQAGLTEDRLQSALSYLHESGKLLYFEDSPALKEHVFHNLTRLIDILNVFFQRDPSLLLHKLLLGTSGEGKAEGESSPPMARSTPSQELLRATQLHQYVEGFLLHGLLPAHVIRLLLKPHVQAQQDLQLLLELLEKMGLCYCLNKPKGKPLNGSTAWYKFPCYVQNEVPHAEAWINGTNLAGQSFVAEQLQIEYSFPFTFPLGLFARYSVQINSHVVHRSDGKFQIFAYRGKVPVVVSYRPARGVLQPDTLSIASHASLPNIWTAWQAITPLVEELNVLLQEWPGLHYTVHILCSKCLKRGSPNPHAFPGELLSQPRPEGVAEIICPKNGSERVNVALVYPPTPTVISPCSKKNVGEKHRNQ
UniProt Q9Y5P4: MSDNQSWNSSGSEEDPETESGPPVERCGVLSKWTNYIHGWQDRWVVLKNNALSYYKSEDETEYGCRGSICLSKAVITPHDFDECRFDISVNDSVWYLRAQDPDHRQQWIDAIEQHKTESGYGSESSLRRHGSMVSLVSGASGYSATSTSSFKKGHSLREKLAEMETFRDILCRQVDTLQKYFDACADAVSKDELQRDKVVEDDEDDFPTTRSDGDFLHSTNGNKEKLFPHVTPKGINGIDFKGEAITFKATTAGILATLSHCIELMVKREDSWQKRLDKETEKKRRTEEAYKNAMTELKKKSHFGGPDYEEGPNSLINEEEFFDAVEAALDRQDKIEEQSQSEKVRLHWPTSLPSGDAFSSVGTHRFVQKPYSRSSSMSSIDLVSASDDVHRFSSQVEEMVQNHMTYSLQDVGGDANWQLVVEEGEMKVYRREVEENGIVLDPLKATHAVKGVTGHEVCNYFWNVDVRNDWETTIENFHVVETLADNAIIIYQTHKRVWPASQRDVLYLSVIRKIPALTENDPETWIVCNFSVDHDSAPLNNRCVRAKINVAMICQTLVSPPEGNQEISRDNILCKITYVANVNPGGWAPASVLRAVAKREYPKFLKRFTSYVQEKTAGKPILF
UniProt Q9Y3P9: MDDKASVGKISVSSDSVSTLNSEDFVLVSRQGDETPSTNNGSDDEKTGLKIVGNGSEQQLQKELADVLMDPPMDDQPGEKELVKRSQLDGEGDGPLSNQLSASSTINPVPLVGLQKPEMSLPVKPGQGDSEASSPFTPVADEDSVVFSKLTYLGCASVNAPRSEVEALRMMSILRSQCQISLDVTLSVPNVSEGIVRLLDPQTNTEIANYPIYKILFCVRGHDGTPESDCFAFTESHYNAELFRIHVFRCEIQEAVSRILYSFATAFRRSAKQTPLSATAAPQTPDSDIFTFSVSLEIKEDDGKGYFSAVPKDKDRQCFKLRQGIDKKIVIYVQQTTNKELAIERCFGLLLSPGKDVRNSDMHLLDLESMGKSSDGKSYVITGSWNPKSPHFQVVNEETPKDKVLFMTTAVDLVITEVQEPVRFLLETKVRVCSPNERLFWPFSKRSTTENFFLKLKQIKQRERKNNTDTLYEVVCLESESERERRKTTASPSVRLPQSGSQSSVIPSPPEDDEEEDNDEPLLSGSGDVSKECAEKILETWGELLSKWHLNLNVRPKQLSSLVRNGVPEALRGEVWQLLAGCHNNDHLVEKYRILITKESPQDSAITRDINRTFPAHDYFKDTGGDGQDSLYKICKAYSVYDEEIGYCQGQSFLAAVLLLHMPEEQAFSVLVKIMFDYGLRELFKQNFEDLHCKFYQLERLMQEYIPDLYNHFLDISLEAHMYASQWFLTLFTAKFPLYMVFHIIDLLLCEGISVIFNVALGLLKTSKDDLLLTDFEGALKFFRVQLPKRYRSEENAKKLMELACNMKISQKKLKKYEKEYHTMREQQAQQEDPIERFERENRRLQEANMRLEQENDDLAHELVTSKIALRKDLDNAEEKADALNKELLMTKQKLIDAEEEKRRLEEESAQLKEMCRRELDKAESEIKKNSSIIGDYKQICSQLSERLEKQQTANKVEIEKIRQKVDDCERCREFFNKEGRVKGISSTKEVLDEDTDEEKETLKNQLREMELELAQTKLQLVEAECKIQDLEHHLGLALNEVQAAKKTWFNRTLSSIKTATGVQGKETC
UniProt Q9Y5N5: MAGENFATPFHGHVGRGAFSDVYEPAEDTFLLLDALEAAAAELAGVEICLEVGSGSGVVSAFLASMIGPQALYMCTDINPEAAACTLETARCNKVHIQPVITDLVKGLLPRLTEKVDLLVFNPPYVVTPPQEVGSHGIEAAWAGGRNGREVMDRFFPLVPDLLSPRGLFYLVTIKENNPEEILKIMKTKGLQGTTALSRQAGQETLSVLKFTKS
UniProt Q9Y4U1: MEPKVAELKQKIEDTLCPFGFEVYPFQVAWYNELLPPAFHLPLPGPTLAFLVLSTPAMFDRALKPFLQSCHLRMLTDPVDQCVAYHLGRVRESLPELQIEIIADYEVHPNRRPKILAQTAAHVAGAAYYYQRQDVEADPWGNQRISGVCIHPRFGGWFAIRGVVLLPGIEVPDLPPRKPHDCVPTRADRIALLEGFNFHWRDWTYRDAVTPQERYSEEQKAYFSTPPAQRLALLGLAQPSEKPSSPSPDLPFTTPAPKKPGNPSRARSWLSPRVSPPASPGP

Some of the results follow. Most entries show no effect beyond the scatter of the controls.

Compound in this test: CN[C@@H]1C[C@H]2O[C@@](C)([C@@H]1OC)n1c3ccccc3c3c4c(c5c6ccccc6n2c5c31)C(=O)NC4 [staurosporine]
As to the kind of experiment: log2 fold change of tryptic peptide abundance, ligand vs vehicle (limited proteolysis) (log2 ratio); higher = more trypsin-susceptible (destabilized). As to conditions: ligand concentration: 20 uM; sample: K562 cleared lysate; digestion: 4 min, 22 C (HT-PELSA RT4min, Orbitrap Astral).
On to “CLIC4 (peptide sequence: EMTGIWR, peptide start residue: 213) (UniProt Q9Y696)”, for which the log2 fold change was found to be 0.171.

For “UFC1 (peptide sequence: GGKICLTDHFKPLWAR, peptide start residue: 112) (UniProt Q9Y3C8)”, the log2 fold change is -0.856.

With “UniProt Q9Y5L2 (peptide sequence: SQLANTEPTK, peptide start residue: 44)”, the log2 fold change was -0.314.

On to “UniProt Q9Y5B6 (peptide sequence: ELGDFTPHDNEPGKGR, peptide start residue: 237)”, for which the log2 fold change was -0.229.

Consider “MFHAS1 (peptide sequence: STPSQELLR, peptide start residue: 773) (UniProt Q9Y4C4)”, for which the log2 fold change was -0.084.

Take “WNK2 (peptide sequence: KGTFTDDLHK, peptide start residue: 2243) (UniProt Q9Y3S1)”: the log2 fold change was 0.155.

Consider “NOC2L (peptide sequence: QMYITYVR, peptide start residue: 335) (UniProt Q9Y3T9)”, for which the log2 fold change was -0.21.

For “UniProt Q9Y5P4 (peptide sequence: YFDACADAVSKDELQR, peptide start residue: 181)”, the log2 fold change is -0.216.

With “RABGAP1 (peptide sequence: ELDKAESEIKK, peptide start residue: 919) (UniProt Q9Y3P9)”, the log2 fold change is 1.4.

On to “N6AMT1 (peptide sequence: VHIQPVITDLVK, peptide start residue: 95) (UniProt Q9Y5N5)”, for which the log2 fold change worked out at 0.307.

Turning to “MMACHC (peptide sequence: IALLEGFNFHWR, peptide start residue: 190) (UniProt Q9Y4U1)”, the log2 fold change was determined as 0.26.
